The text below walks through data of publication doi:10.1101/2020.07.05.188557.

No constants are given. Whether binding was seen depends on the method and setting. Binding seen in cells or lysates may run through a third protein. For some assays here: Binding calls can cover weak binding; strength is not graded here.

Holding throughout (experiment): split reporter
Assay [1] has as its target gal2-8TM-Cub-GST (S. cerevisiae).
Assay [2] has as its target gal2-10TM-Cub-GST (S. cerevisiae).
The target in assay [3] is gal2-6TM-Cub-GST (S. cerevisiae).
The target of assay [4] is hxt1-8TM-Cub-GST (S. cerevisiae).
For assay [5], the target named is can1-8TM-Cub-GST (S. cerevisiae).
The target in assay [6] is agp1-6TM-Cub-GST (S. cerevisiae).
Assay [7] concerns the target can1-10TM-Cub-GST (S. cerevisiae).
In assay [8] the target is hxt1-12TM-Cub-GST (S. cerevisiae).
For assay [9], the target named is gap1-8TM-Cub-GST (S. cerevisiae).
In assay [10] the target is gal2-12TM-Cub-GST (S. cerevisiae).
In assay [11] the target is ssy1-12TM-Cub-GST (S. cerevisiae).
In assay [12] the target is ssy1-4TM-Cub-GST (S. cerevisiae).
Assay [13] concerns the target gap1-2TM-Cub-GST (S. cerevisiae).
The target in assay [14] is hxt1-6TM-Cub-GST (S. cerevisiae).
In assay [15] the target is agp1-8TM-Cub-GST (S. cerevisiae).
Assay [16] addresses gal2-4TM-Cub-GST (S. cerevisiae).
Assay [17] deals with agp1-4TM-Cub-GST (S. cerevisiae).

B1: Shr3-NubA (protein, UniProt Q02774 1-210)
chain: MFSYSDFCSIGTAMILSATTFLMGVFFSNMPYDYHLLFNPNSTQEHFDLALRHYQILHETPLPVIVTLCVVAGIGLVGGTIKVFKPNPELQMFEYCSLGLYVLAICVFLTNVKTGIDCSVSHNWGEVTENQGLAVIASSNIILLVMFAGVIILQIGLWYSNWDLQKRLKEFYAQEEREAANAGKKTEKVDNAKKNDNKSKGAQKRKNAKK
With B1, the binding result in [1] was “no binding”; in assay [2] it was “no binding”; in [3] it was “no binding”; in [4] it was “no binding”; in [5], “binds”; in [6] it was “binds”. The binding result in [7] was “binds”; in [8] it was “no binding”; in [9] it was “binds”; in [10], “no binding”; in [11] it was “binds”; in assay [12] it was “binds”. In addition, the binding result in assay [13] was “no binding”; in assay [14] it was “no binding”; in [15], “binds”; in [16] it was “no binding”; in assay [17] it was “binds”.
